Test results as given in PubChem BioAssay AID743255 (National Center for Advancing Translational Sciences (NCATS), 2014).
Hit rate of the full screen: of about 390,000 compounds, about 910 (0.23%) were called active. The shares of active, inactive and inconclusive entries below differ from those in the screen. Calls follow the shape of the dose curve; as a rule, active = well fitted inhibition curve with a large enough effect; inconclusive = small, poorly fitted or top-dose-only effect; inactive = no such curve, though single readings can be large or run the other way. A potency beside an inconclusive call is a rough fit, not a confirmed value.

Chains of the proteins cited; added tags and fusions are not shown. Lines headed by an entry give the natural chain unless they say otherwise; changes in a name come on top.
UniProt O94782: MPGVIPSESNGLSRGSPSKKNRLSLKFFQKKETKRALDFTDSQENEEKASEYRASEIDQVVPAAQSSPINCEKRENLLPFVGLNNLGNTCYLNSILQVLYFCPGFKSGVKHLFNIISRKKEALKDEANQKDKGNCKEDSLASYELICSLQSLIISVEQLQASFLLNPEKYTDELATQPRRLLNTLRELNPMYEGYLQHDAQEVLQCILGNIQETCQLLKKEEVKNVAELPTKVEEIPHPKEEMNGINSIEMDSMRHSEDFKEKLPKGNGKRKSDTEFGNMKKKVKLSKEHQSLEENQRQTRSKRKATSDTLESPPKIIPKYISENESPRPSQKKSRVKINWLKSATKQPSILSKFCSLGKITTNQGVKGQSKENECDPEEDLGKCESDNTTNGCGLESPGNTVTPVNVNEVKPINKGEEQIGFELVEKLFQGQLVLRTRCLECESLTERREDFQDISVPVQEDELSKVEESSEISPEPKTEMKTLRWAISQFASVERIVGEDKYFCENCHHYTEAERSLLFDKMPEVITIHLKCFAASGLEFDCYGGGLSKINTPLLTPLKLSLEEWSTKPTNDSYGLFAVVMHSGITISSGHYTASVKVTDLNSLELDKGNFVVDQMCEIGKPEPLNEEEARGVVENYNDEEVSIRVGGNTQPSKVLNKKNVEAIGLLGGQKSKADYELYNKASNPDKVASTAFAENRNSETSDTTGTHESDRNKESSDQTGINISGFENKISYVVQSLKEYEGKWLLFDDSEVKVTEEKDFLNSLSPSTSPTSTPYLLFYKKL

Target: Ubiquitin carboxyl-terminal hydrolase 1 (Homo sapiens) (UniProt O94782)
Experiment: Inhibitors of USP1/UAF1: Primary Screen; also: nearly all actives have a fitted effect of over 60% in size
Details: recombinant USP1/UAF1, Ub-Rhodamine cleavage fluorescence; activity change, negative = inhibition: at 57.1 µM (top of the series)
Summary of the method: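 In this screen, compounds sit with the deubiquitinase complex (1nM) for 15 min at room temperature before Ub-Rho is added at 150nM final. Fluorescence rise is then followed for 6 reads every 60 seconds.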
% is scaled to controls: 0 for no effect and ±100 for the full control effect; potency is read from the fitted curve at half-maximal effect.

Potency, inconclusive:
CC(=O)N(/N=C1\Sc2ccccc2C1=O)c1ccccc1 5.62 µM [inhibitor, partial curve, poor fit], CC[C@H]1C=C[C@@H](C(C(=O)OC)C(=O)OC)CN1C(C)=O 0.199 µM [inhibitor, full curve], O=C(NCc1ccccc1)c1ncn(Cc2ccccc2)c1C(=O)NCc1ccccc1 5.01 µM [inhibitor, partial curve], CCc1ccc(-n2cccc2/C=C2/C(=N)N3C(=NC2=O)SN=C3S(C)(=O)=O)cc1 35.5 µM [inhibitor, partial curve, poor fit], O=C(N/N=C/c1sc(N2CCCCC2)nc1-c1cccs1)c1cccnc1 35.5 µM [inhibitor, partial curve], CC(C)Sc1nc2sc3c(c2c2nnc(SCC(=O)NCc4ccco4)n12)CCCC3 35.5 µM [inhibitor, partial curve, poor fit], CC(OC(=O)c1ccccc1NS(=O)(=O)c1cccc(C(F)(F)F)c1)C(=O)N(C)Cc1ccccc1 (configuration not stated) 22.4 µM [inhibitor, partial curve], COC(=O)C1=C(C)N(Cc2ccccc2)C(=NCc2cc(OC)c(OC)c(OC)c2)N[C@H]1c1cccc(F)c1 2.82 µM [inhibitor, full curve], C[C@H](CO)N1C[C@H](C)[C@H](CN(C)C(=O)c2ccccc2)OCc2ccccc2-c2c(n(C)c3ccccc23)C1=O 35.5 µM [inhibitor, partial curve], C[C@H](NC(=O)c1nc[nH]c1C(=O)NC(c1ccccc1)c1ccccc1)C(=O)OCc1ccccc1 7.94 µM [inhibitor, partial curve, poor fit], COc1ccc2c(CNC3CCCCCC3)c(C(=O)O)n(Cc3cccc(F)c3)c2c1 4.47 µM [inhibitor, partial curve]

Potency, inactive:
COc1ccccc1N1CCN(S(=O)(=O)c2ccc3nc(-c4ccccc4)[nH]c3c2)CC1, CCOC(=O)c1sc(NC(=O)Nc2ccccc2)cc1C, CC(C)N(C(=O)[C@H]1C[C@H](CC(=O)NCC23CC4CC(CC(C4)C2)C3)C(=O)N2CCc3c([nH]c4cc(CCC(=O)N(C)C)ccc34)[C@]12C)C(C)C, Cn1c(=O)c2c(c3ccccc31)OC(=O)CC2c1cccc(F)c1 (configuration not stated), N#C/C(=C\c1ccc(Sc2ccccc2)o1)c1nc2ccccc2[nH]1

Activity change, negative = inhibition, inconclusive:
COc1ccc(/C=N/NC(=O)c2ccccc2NC(=O)c2ccco2)c(OC)c1 -4.41% [inhibitor]
